In patent US20210290727A1 (UNIVERSITY OF MARYLAND BALTIMORE, published 2021):

Target: HA-GST-Rheb S20N variant (UniProt Q15382)
Assay: co-IP from HEK293 lysates, immunoblot

B1: tdTomato-CIB2 (protein, not shown: large carriers)
chain: MGNKQTIFTEEQLDNYQDCTFFNKKDILKLHARFYELAPNLVPMDYRKSPIVHVPMSLIIQMPELRENPFKERIVEAFSEDGEGNLTFNDFVDMFSVLCESAPRELKANYAFKIYDFNTDNFICKEDLEMTLARLTKSELEEDEVVLVCDKVIEEADLDGDGKLGFADFEDMIAKAPDFLSTFHIRI
binding: binds

These are yes or no findings as the source states them, for the method shown. In cells and extracts the contact can be indirect. Binding can be weak; no strength is given.
